We go through 20 sequences from the supplement of paper PMC10338343.

The assay concerns EfPiwi piRISC loaded with L1MC piRNA (26 nt). As to the kind of experiment: pre-steady-state target cleavage rate (min^-1); guide: L1MC piRNA 5'p-UAACUAAAUACUAUGCAAGCUGUAGG; MIWI and MILI are mouse PIWI proteins and EfPiwi is from a freshwater sponge; tags in brackets are library labels; higher = faster piRNA-guided slicing of the target. In outline:
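Cleave-'n-Seq measured uncleaved targets by sequencing after a transcribed, DNA-blocked target RNA library […] was mixed with 1 nM active affinity-purified piRISC holding one synthetic guide, with or without 500 nM GTSF1 partner protein, at 33 °C in HEPES–potassium acetate buffer for 0–8 or 0–960 min. Counts were normalised to depth and to weakly complementary targets, three trials were pooled, and k3 was capped at 0.0001 min^-1. A burst-and-steady-state fit gave the pre-steady-state cleavage rate.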

The mark [1] stands for this setting: auxiliary factor: 500 nM Ephydatia muelleri Gtsf1.
The mark [2] stands for this setting: auxiliary factor: none (no Gtsf1).

± gives the standard deviation. Some of the results follow. The uncertainty is large for many entries.

For UCCUGCUACAGCUUGCUUAGUUUUUAGUUA, the “pre-steady-state target cleavage rate” value is 0.0055 ± 0.0019 under setting [1] and 0.000708 ± 0.0097 under setting [2].

Regarding UCCUGGAAGAGCUUGCAUAGUAUUUAGUUA, the “pre-steady-state target cleavage rate” value is 0.0725 ± 0.016 under setting [1] and 0.0015 ± 0.0068 under setting [2].

For the sequence UCCUGCUACAGCUUACAUAGUAUUUAGUUA, the “pre-steady-state target cleavage rate” value by setting is: under setting [1], 0.0151 ± 0.0038; under setting [2], 0.000684 ± 0.0091.

On to UCCUGGUACAGCUGUGCAUAGUAUUUAGUUA, for which the “pre-steady-state target cleavage rate” value stood at 0.00903 ± 0.0034 under setting [1] and 0.000187 ± 0.041 under setting [2].

In the case of UCCUGGUACAGCUUGCUUUGUAUUUAGUUA, the “pre-steady-state target cleavage rate” value reads like this: under setting [1], 0.0014 ± 0.0044; under setting [2], 0.000456 ± 0.024.

Regarding UCCUGGAACAGCUUGCAGAGUAUUUAGUUA, the “pre-steady-state target cleavage rate” value under setting [1] turned out to be 0.012 ± 0.003 and the “pre-steady-state target cleavage rate” value under setting [2] came out at 0.00133 ± 0.0067.

Regarding UCCUGGAACUGCUUGCAUUGUAUUUAGUUA, the “pre-steady-state target cleavage rate” value is, setting by setting: under setting [1], 0.00574 ± 0.0019; under setting [2], 0.000382 ± 0.021.

For the sequence UCCUGCUACAGGCUUGCAUAGUAUUUAGUUA, the “pre-steady-state target cleavage rate” value was 0.00977 ± 0.0027 under setting [1] and 0.00113 ± 0.0074 under setting [2].

Regarding UCCUGGUACAGCUUGCAUAGUAUUUAGUAUA, the “pre-steady-state target cleavage rate” value reads like this: under setting [1], 0.00633 ± 0.0024; under setting [2], 0.000755 ± 0.02.

In the case of UCCUGCUAGAGCUUGGAUAGUAUUUAGUUA, the “pre-steady-state target cleavage rate” value by setting is: under setting [1], 0.00499 ± 0.0016; under setting [2], 0.000614 ± 0.0079.

For UCCUGGAUGUCCUUGCGUAGUAUUUAGUUA, the “pre-steady-state target cleavage rate” value under setting [1] came out at 0.00159 ± 0.0035 and the “pre-steady-state target cleavage rate” value under setting [2] was found to be 0.000734 ± 0.01.

Take UCCUGCUACACGAUGCAUAGUAUUUAGUUA: the “pre-steady-state target cleavage rate” value runs as follows: under setting [1], 0.00905 ± 0.0024; under setting [2], 0.000601 ± 0.011.

As for UCCUGGUACAGCAUGCAUAGUAUUUAGAUA, the “pre-steady-state target cleavage rate” value was found to be 0.00412 ± 0.0025 under setting [1] and 0.000531 ± 0.015 under setting [2].

Take UCCUGGAUCAGCUUGCAUAGCAUUUAGUUA: the “pre-steady-state target cleavage rate” value was 0.00774 ± 0.0021 under setting [1] and 0.00546 ± 0.0038 under setting [2].

Regarding UCCUGGAUGACCUUGCUUAGUAUUUAGUUA, the “pre-steady-state target cleavage rate” value is, setting by setting: under setting [1], 0.000711 ± 0.005; under setting [2], 0.000812 ± 0.012.

Consider UCCUGGAUCAGCUAGCAUAGUAUUUAGAUA, for which the “pre-steady-state target cleavage rate” value runs as follows: under setting [1], 0.00122 ± 0.0051; under setting [2], 0.000418 ± 0.017.

In the case of UCCUGGAUGUCCUUGCAUAGUAUUUUAGUUA, the “pre-steady-state target cleavage rate” value was 0.00287 ± 0.0028 under setting [1] and 0.000531 ± 0.015 under setting [2].

Regarding UCCUGGAUGUGCUUGCAUAGUAGUUUAGUUA, the “pre-steady-state target cleavage rate” value under setting [1] stood at 0.0051 ± 0.0034 and the “pre-steady-state target cleavage rate” value under setting [2] came out at 0.00262 ± 0.0063.

For the sequence UCCUGGAUGUGGUUGCAUAGUAUUUUGUUA, the “pre-steady-state target cleavage rate” value runs as follows: under setting [1], 0.00236 ± 0.0032; under setting [2], 0.000991 ± 0.013.

For UCCUGGAUGUGCUUGCAUAGUAUUUAGUGUA, the “pre-steady-state target cleavage rate” value reads like this: under setting [1], 0.00208 ± 0.0039; under setting [2], 0.00114 ± 0.01.
